Read-outs that look alike come from different tables or passages of the source. The structures given here were assigned with low confidence; some may be wrong.
Legend:
[1] = target: human dopamine D2Long (D2L) receptors (Homo sapiens, UniProt P14416); details: read-out: D2 affinity Ki
[2] = target: human dopamine D1 receptor (Homo sapiens, UniProt P21728); experiment: [3H]-SCH-23390 binding to cloned human dopamine D1 receptors (CHO cell membranes); details: read-out: D1 affinity Ki
Procedure: [^3H]-SCH-23390 Binding to Cloned Human Dopamine D1 Receptors
Determination of relative binding affinity of potential neuropsychiatric and other agents for the human dopamine D1 receptor.
The human D, cDNA was obtained from the laboratory of Dr. Marc Caron in the vector pCMV5. A 1.4 Kb Hind III to Xho I fragment was subcloned into the vector pMMLV. The plasmid pHD1MMLV was then sequenced completely. Transient transfections in COS-7 cells were performed and D1 specific binding was obtained. The construct pHD1MMLV was then transfected stably into CHO cells and 72 G418-resistant clones were isolated. High expressors were identified by mRNA dot blot analysis. Six high expressors were further characterized by binding and then clone CHO-D1M#9 was chosen for detailed pharmacological characterization. This clone was then grown in suspension culture for the purpose of obtaining enough protein to accommodate several months of screening.
B. Cell Culture Conditions
• 1. […] Cells are transferred to suspension culture when at least […] are available (this allows for 300,000 cells/ml in a 50 ml spinner flask; this is the ideal suspension density). Cells are removed from flasks with trypsin, spun down at 1000×G and resuspended the pellet in fresh medium: • 50% CHO-SFM-II+50% Ham's F12 w/10% FBS (final FBS conc. 5%)+400 μg/ml G418+1% P/S. • 3. After the transfer to suspension culture, growth is monitored and cell viability is assessed using trypan blue exclusion. Total and viable cell count on 5 sectors of the hemocytometer are recorded. When the viable cell density reaches 600,000 cell/ml, the volume is doubled. • 4. […]
The membrane suspension is diluted in water and samples (10, 50 and 100 μl; q.s. to 100 μl with water) are diluted with 100 μl of 1% SDS. […] OD readings that fall between 0.1-0.5 (mid-range of standard curve) should typically be used for calculations. Protein concentrations are calculated from a standard curve using bovine serum albumin as standard by linear regression and interpolation. […]

Sequences of proteins named here, by UniProt entry; tags and fusion partners are left off. A change or cut given only in a name is not applied to a line headed by its entry.
UniProt P14416, whole entry: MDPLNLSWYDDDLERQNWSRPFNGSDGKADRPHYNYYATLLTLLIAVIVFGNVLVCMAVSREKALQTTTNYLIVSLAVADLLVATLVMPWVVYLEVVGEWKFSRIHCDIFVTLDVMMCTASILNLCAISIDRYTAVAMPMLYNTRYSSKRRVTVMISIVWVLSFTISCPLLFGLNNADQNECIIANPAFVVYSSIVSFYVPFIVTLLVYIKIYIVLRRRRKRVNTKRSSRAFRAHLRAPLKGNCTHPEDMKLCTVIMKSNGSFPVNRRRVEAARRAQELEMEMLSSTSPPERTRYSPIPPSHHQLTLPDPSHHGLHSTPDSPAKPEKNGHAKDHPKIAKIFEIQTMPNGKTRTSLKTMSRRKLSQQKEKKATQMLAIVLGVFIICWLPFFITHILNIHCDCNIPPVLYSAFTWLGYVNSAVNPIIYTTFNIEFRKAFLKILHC
UniProt P21728, whole entry: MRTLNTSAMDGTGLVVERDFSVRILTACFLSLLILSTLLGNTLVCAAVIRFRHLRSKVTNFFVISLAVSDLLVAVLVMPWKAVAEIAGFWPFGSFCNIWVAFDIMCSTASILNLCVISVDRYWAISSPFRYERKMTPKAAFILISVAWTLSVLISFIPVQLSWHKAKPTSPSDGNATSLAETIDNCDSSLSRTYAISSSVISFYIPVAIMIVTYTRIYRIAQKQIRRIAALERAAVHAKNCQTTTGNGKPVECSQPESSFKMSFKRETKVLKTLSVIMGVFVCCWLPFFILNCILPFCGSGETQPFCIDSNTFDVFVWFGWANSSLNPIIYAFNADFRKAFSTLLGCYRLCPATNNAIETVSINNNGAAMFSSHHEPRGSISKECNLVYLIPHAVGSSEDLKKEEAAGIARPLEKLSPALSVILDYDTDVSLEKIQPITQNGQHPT

[3] = target: D1 receptor (Homo sapiens, UniProt P21728); experiment: D1 Activation Adenylyl Cyclase Assay (cAMP FlashPlate, D1 transfected CHO cell line); assay type: cell-based; details: tested form: HCl; for EC50: read-out: D1 EC50
Procedure: D1 Activation Adenylyl Cyclase Assay
Purpose: To measure D1-agonist activity compounds using an Adenylyl Cyclase Activation Flash Plate Assay from NEN.
Buffers: Activation and Detection buffers are provided from NEN: Catalog # SMP004A.
Maintenance of D1 transfected CHO cell line: • 1. Cells are grown in a 150 cc flask in an incubator at 37° C. with 5% CO2 for 2-3 days (4 maximum) until confluent. • 2. Aspirate off old media (Cells adhere to the plastic flask), wash 2× with sterile PBS. • 3. Add ˜5 mL of Trypsin EDTA (enough to cover bottom of the flask) for 5 min. at RT. • 4. Stop digestion with 15 mL of Media (Ham's F12 plus 10% FBS, 1% P/S, 400 μg/mL G418). • Bang flask on counter to release them from the flask. • 5. Add 2 mL of this to 30 mL of Media in a fresh flask. Return to incubator. Preparation of Cells for Assay: • 1. Loosen the cells with 5 mL Vercine (EDTA)/flask for 10 minutes in incubator. • 2. Add 20 mL of Serum-free media/flask. Transfer to 50-mL Falcon tube. • 3. Spin down cells at 1000 RPM for 5 minutes at 4° C. • 4. Aspirate off old media and resuspend in 5 mL of Serum-free media/plate to be done. • 5. Dilute 10 μL 1/10 in 90 μL Trypan Blue solution and count with a hemocytometer. • Count (live cells only) all four areas and average them. • Count X 10^5 equals cells/mL (including accounting for dilution in Trypan). • 6. Dilute to 50,000 cells/50 μL (1,000,000 cells/mL) in Serum-free media. • 7. Put 50 μL/well in Rows 3-12 of a cAMP FlashPlate. • 8. Put in incubator at 37° C. for 2-4 hours, to allow cells to recover and attach. Adenylyl Cyclase Activation Assay: • 1. Prepare the cAMP standards: • Add 130 μL/well of stimulation buffer to each row of a separate 96-well “standard” plate, 2 columns/plate. • Dilute stock cAMP standard 1/5 with stimulation buffer (final concentration is 1000 pmol/mL). Add 130 μL of this to row A. • Make 1/2 serial dilutions by adding 130 μL from each well to the next (A-G), mixing between each. • Final concentrations are: • A: 500, B: 250, C: 125, D: 62.5, E: 31.25, F: 15.6, G: 7.8, H: 0 pmol/mL. • Place 100 μL from each row from 2 columns of the standard plate into columns 1 and 2 of each “reaction” plate. • 2. Prepare the negative and positive control in the “reaction” plate: • Column 3, rows A-D, add 100 μL stimulation buffer (negative control). • Column 3, rows E-H, add 90 μL of stimulation buffer plus 10 μL of 200 μM APO (positive control, […]). (10 μL 10 mM APO, plus 490 μL stim. buffer=1/50 dilution.) • 3. […]

Cc1ccc2c(c1O)C[C@@H](C1CCN(S(=O)(=O)CC(c3ccccc3)c3ccccc3)CC1)O[C@H]2CN
Ki ([1]; tested form: HCl): 1.85 nM | Ki ([2]; tested form: HCl): 3.6 nM | EC50 [3]: 40 nM | D1 max Ki [3]: 50 nM

C=CCN(CC=C)C(=O)N1CCC([C@@H]2Cc3c(ccc(C)c3O)[C@H](CN)O2)CC1
Ki ([1]; tested form: HCl): ≥ 100000 nM | Ki ([2]; tested form: HCl): 125 nM | EC50 [3]: 9 nM | D1 max Ki [3]: 32 nM

Cc1ccc2c(c1O)C[C@@H](C1CCN(C(C)C)CC1)O[C@H]2CN
Ki ([1]; tested form: 2HCl): ≥ 10000 nM | Ki ([2]; tested form: 2HCl): 289 nM

Reference: patent US7919508B2, “3-piperidinylisochroman-5-ols as dopamine agonists” (Aventis Pharmaceuticals Inc., priority 2004, dated 2011)
